For experiment [1], the target named is T1, site-specific amino acid-substituted rTpiA K252A (Streptococcus pneumoniae D39) (UniProt Q04JH4).
T1 sequence: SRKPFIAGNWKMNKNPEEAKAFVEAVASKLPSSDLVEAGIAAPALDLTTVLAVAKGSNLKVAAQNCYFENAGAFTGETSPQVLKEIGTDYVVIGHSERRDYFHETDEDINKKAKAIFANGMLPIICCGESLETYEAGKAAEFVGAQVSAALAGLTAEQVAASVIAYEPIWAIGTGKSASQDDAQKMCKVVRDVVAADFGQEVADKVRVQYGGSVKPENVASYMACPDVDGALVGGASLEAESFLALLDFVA
The experiment can be described thus: SPR; Biacore X100; rTpiA immobilised on CM5 chip by amine coupling; plasminogen 6.25-100 nM injected, contact time 120 s, 20 µL/min; running buffer 100 mM HEPES pH 7.4, 150 mM NaCl, 3 mM EDTA, 0.005% surfactant P20; apparent constants; both purified. Background: Surface plasmon resonance follows binding to a sensor surface in real time, without labels.

In experiment [2] the target is T2, rTpiA K112A, K113A, K115A (Streptococcus pneumoniae D39) (UniProt Q04JH4).
T2 sequence: T1 sequence with K111A, K112A, K114A, A251K
Description: far-Western, overlay or dot blot; rTpiA (200 ng) separated by SDS-PAGE and transferred onto PVDF; membrane blocked with 5% BSA in TBST, incubated 90 min with 30 µg/mL plasminogen at 25 °C; bound plasminogen probed with rabbit polyclonal anti-plasminogen and HRP secondary antibody; both purified.

Experiment [3] concerns the target T3, rTpiA K216A (Streptococcus pneumoniae D39) (UniProt Q04JH4).
T3 sequence: T1 sequence with K215A, A251K
The description is as above.

Experiment [4] has as its target T4, rTpiA K56A (Streptococcus pneumoniae D39) (UniProt Q04JH4).
T4 sequence: T1 sequence with K55A, A251K
The experiment is described as above.

Experiment [5] deals with T5, rTpiA K189A (Streptococcus pneumoniae D39) (UniProt Q04JH4).
T5 sequence: T1 sequence with K188A, A251K
The experiment is described as above.

In experiment [6] the target is T6, rTpiA K115A (Streptococcus pneumoniae D39) (UniProt Q04JH4).
T6 sequence: T1 sequence with K114A, A251K
The description is as above.

Experiment [7] concerns the target T1, site-specific amino acid-substituted rTpiA K252A (Streptococcus pneumoniae D39). The experiment is described as above.

Among the data in article PMC10221034 (2023) are binding values, retold here.

Changes are numbered by the printed parent chain. No constants are given. Whether binding was seen depends on the method and setting. For some of these results: Binding calls can cover weak binding; strength is not graded here.

As for human plasma plasminogen, the binding entry in experiment [1] is reported as “binds weakly”; in experiment [2] it was “binds”; in experiment [3] it was “binds”; in experiment [4], “binds”; in experiment [5], “binds”; in experiment [6], “binds”. Further, the binding result in experiment [7] is “no binding (tested: 30 µg/mL plasminogen)”.
